# In patent US12708613B2, “Methods for improving physical exercise performance” (NOMIO NUTRITION AB, priority 2020, dated 2026):
# System: myrosinase
# Test: Study IV: sulforaphane formation from glucoraphanin in sprout homogenate without mustard seeds
# Conditions: no mustard seeds added
compound,measurement,setting,value
"C[S+]([O-])CCCC/C(=N\OS(=O)(=O)O)S[C@@H]1O[C@H](CO)[C@@H](O)[C@H](O)[C@H]1O (some centres unmarked) [glucoraphanin, 4-Methylsulfinylbutyl glucosinolate]",glucoraphanin concentration after incubation,14 days at 20 degrees Celsius,6.6 g/L
same,glucoraphanin concentration before incubation,,118.1 g/L
